Patent US20250130239A1, “PROTEIN DEGRADER” (University of Dundee, priority 2021, published 2025)
At least one read-out could not be matched to a standard name with certainty.

Experiment: In vivo PK profiling of AGB1
Set-up: species or system C57BL/6 male mice
Conditions: 5 mg/kg SC injection, mice
Protocol: In Vivo PK Profiling. Pharmacokinetic profiling was outsourced and undertaken by Shanghai ChemPartner Co., Ltd. Six to eight-week-old, C57BL/6 male mice purchased from Jihui Laboratory Animal Co. LTD were used in the study. […] The animals were restrained manually at the designated time points (0.083, 0.25, 0.5, 1, 2, 4 and 8 h), approximately 110 μL of blood sample was collected via facial vein into K2EDTA tubes. Three mice per time point were used resulting in a total of […]. Blood sample was put on ice and centrifuged at 2000 g for 5 mins to obtain plasma sample within 15 min. Plasma samples were stored at approximately −70° C. until analysis. A 30 μL aliquot of plasma was added with 200 μL internal standard (Diclofenac, 40 ng/mL) in 1% formic acid in MeCN. The mixture was then vortexed for 1 min and then centrifuged for 10 min at 5800 rpm. 100 μL of supernatant was transferred to a new plate. 0.5 μL of solvent was injected to LC-MS/MS. LC-MS/MS instrument used: SCIEX LC-MS/MS-45 (Triple Quad 6500+). Data was analysed by WinNonLin and Microsoft Excel.

CC[C@@H](C(=O)OCCOCCOCCOCC(=O)N[C@H](C(=O)N1C[C@H](O)C[C@H]1C(=O)NCc1ccc(-c2scnc2C)cc1)C(C)(C)C)[C@@H]1N=C(c2ccc(Cl)cc2)c2c(sc(C)c2C)-n2c(C)nnc21 (single isomer, unassigned) [AGB1 (46)]
time plasma concentration is maintained above BromoTag-Brd2 DC50, 6 h: > 8 h
